The whole screen tested about 330,000 compounds, of which about 100 (0.03%) were called active. The shares of active, inactive and inconclusive entries below differ from those in the screen. The call rests on the fitted dose curve; in most records, active means well fitted inhibition curve with a large enough effect; inconclusive means small, poorly fitted or top-dose-only effect; inactive means flat fitted curve, though single readings scatter. A potency beside an inconclusive call is a rough fit, not a confirmed value.
Test system: Chaperonin Mm-Cpn (Methanococcus maripaludis)
Assay: Inhibitors of TCP-1 ring complex (TRiC) of Methanococcus maripaludis (MmCpn): qHTS; further: nearly all actives have a fitted effect of over 80% in size;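 on potency: enzyme at 25 nM with ATP substrate at 10 µM during the reaction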
Conditions: purified Mm-Cpn ATPase, ADP Transcreener TR-FRET
How it was run: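 Purified archaeal Mm-CPN (25nM final) preincubated 10 min at 37degC with compound, then 10uM ATP for 30 min at 37degC; ADP measured by HTRF Transcreener TR-FRET; buffer 30 mM TRIS pH 7.4, 100mM KCl, 5mM MgCl2, 1mM DTT.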
Potency means the concentration at half of the fitted maximal effect.

Potency, active:
O=C(O)CCCNc1cc(N2CCN(C(=O)c3ccco3)CC2)c2noc3c2c1C(=O)c1ccccc1-3 35.5 µM

Potency, inactive:
CC1CCCC(C)N1S(=O)(=O)c1ccc(Cl)cc1 (stereo unspecified)
COc1ccc(COc2cc(-c3cccc(OC)c3)nc3ccc(NC(=O)c4cccnc4)cc23)cc1
O=c1[nH]c2cc3c(cc2cc1CN(CCc1ccccc1)Cc1nnnn1C1CCCC1)OCCO3
COc1ccc(NC(=O)/C(C#N)=C\c2ccc(-c3cc(C(=O)O)ccc3C)o2)cc1
CCCCN(C(=O)CSc1nnnn1C)C1CCS(=O)(=O)C1 (stereo unspecified)
CCC(=O)/C=C1/Sc2ccc(OC)cc2N1CCO
CCOC(=O)c1sc(NC(=O)c2cc(-c3ccccc3C)nc3ccccc23)c(C#N)c1C
COc1ccc(Nc2sc(C(=O)c3ccc(Cl)cc3)c(N)c2C(=O)Nc2ccccc2OC)cc1
CCCCCc1cc(=O)oc2c(C(CCN3CCCC(C)C3)c3ccc4c(c3)OCO4)c(OC)cc(OC)c12 (stereo unspecified)
O=[N+]([O-])c1ccc(NC(=S)NCCc2ccc(Cl)cc2)cc1
Nc1nc(-c2ccco2)nn1S(=O)(=O)c1ccccc1
Fc1cc(F)c2nc(N3CCCCC3)sc2c1
O=C(CSc1ncn[nH]1)Nc1ccc(Cl)c(Cl)c1
N#C/C(=C\c1ccc(OCc2ccccc2)cc1)C(=O)Nc1ccc(C(=O)O)cc1
CCN1CCN(c2ccc(S(=O)(=O)N3CCOCC3)cc2NC(=O)c2cc(Cl)nc3ccccc23)CC1
O=C(NCCCN1CCOCC1)c1cc2ccccc2oc1=O
O=C(Cc1ccccc1)NN1C(=O)/C(=C/c2ccc(C(=O)O)cc2)SC1=S
COc1ccccc1C(=O)Nc1nnc(S(=O)(=O)N2CCCCC2)s1
COc1ccc(NCN2C(=O)CCC2=O)cc1
Cc1ccc(Oc2ccc(S(=O)(=O)N3CCOCC3)cc2C(N)=O)c(-n2nc3ccccc3n2)c1
Cc1nc(-c2ccc(NC(=O)c3ccco3)cc2)cs1
Cc1ccc2c(c1)c1c(n2C)-c2[nH]ncc2CC1
CCCCNC(=O)CSc1ccc(S(=O)(=O)N2CCOCC2)cn1
Cc1ccc(-n2c(-c3cn(C)nc3C)n[nH]c2=S)cc1

Copied from the entries so far (twelve entries):
Potency, inactive:
O=c1[nH]c2cc3c(cc2cc1CN(CCc1ccccc1)Cc1nnnn1C1CCCC1)OCCO3
COc1ccc(NC(=O)/C(C#N)=C\c2ccc(-c3cc(C(=O)O)ccc3C)o2)cc1
CCCCN(C(=O)CSc1nnnn1C)C1CCS(=O)(=O)C1 (stereo unspecified)
CCC(=O)/C=C1/Sc2ccc(OC)cc2N1CCO
CCOC(=O)c1sc(NC(=O)c2cc(-c3ccccc3C)nc3ccccc23)c(C#N)c1C
COc1ccc(Nc2sc(C(=O)c3ccc(Cl)cc3)c(N)c2C(=O)Nc2ccccc2OC)cc1
CCCCCc1cc(=O)oc2c(C(CCN3CCCC(C)C3)c3ccc4c(c3)OCO4)c(OC)cc(OC)c12 (stereo unspecified)
O=[N+]([O-])c1ccc(NC(=S)NCCc2ccc(Cl)cc2)cc1
Nc1nc(-c2ccco2)nn1S(=O)(=O)c1ccccc1
Fc1cc(F)c2nc(N3CCCCC3)sc2c1
O=C(CSc1ncn[nH]1)Nc1ccc(Cl)c(Cl)c1
N#C/C(=C\c1ccc(OCc2ccccc2)cc1)C(=O)Nc1ccc(C(=O)O)cc1

Following part:

Potency, inconclusive:
COc1ccc(NC(=O)COC(=O)c2ccc(S(=O)(=O)N3CCCC3)cc2)cc1OC 14.1 µM [inhibitor, partial curve, poor fit]
CC1(C)Cc2c(C#N)c(SCC(=O)c3ccccc3)nc(N3CCOCC3)c2CS1 100 µM [inhibitor, single point]
COc1ccccc1C(=O)N1CCN(Cc2ccc3c(c2)OCO3)CC1 50.1 µM [inhibitor, single point]
CC(=O)N1CCN(C(=O)c2cc(-c3ccc(Cl)s3)nc3ccccc23)CC1 224 µM [inhibitor, partial curve, poor fit]
Cc1cccc(Nc2nc(-c3ccccc3)c(C(=O)Nc3cccnc3)s2)c1 178 µM [inhibitor, partial curve]
COc1ccccc1-c1sc2cc3c(cc2c1C#CC1(O)CCCCC1)OCO3 56.2 µM [inhibitor, partial curve, poor fit]
O=c1c2ccccc2nc(/C=C/c2cccnc2)n1CCc1ccccc1 398 µM [inhibitor, partial curve, poor fit]
CCOC(=O)N1CCN(c2nc(SC)nc3sc4c(c23)CC(C)(C)OC4)CC1 100 µM [inhibitor, single point]
COc1ccc(-c2csc(NC(=O)c3ccc(OCC(=O)N4CCOCC4)c(OC)c3)n2)cc1OC 79.4 µM [inhibitor, single point]
Cc1nc(NC(=O)c2ccccc2)sc1-c1csc(NCCc2ccccc2)n1 12.6 µM [inhibitor, single point]
O=C(Nc1ccc(F)cc1)Nc1sccc1-c1nc2ccccc2s1 100 µM [inhibitor, single point]
CCCCNC(C(=O)Nc1ccc(Cl)c([N+](=O)[O-])c1)c1ccccc1 (stereo unspecified) 22.4 µM [inhibitor, single point]
CCOC(=O)N1CCN(C(=S)Nc2ccc(C)cc2C)CC1 28.2 µM [inhibitor, single point]
COc1cccc(NC(=S)N(C)C2CCN(C)CC2)c1 63.1 µM [inhibitor, single point]
CCOC(=O)N1CCN(CC(O)COc2cc(C)cc(C)c2)CC1 (stereo unspecified) 8.91 µM [inhibitor, single point]
COc1ccc(Cl)cc1-c1nc(SCC(=O)NC2CCCC2)n[nH]1 70.8 µM [inhibitor, single point]
COc1ccc(OCC(=O)c2c(O)c3ccccc3oc2=O)cc1 89.1 µM [inhibitor, single point]
Cc1nc(Cl)c2c(n1)N(CC(N)=O)C(=O)CO2 31.6 µM [inhibitor, single point]
COc1ccc(N(CC(O)CN2CCCCC2)S(=O)(=O)c2ccc(C)cc2)cc1 (stereo unspecified) 89.1 µM [inhibitor, single point]
O=C(CSc1nnc(-c2ccc(F)cc2)c2ccccc12)Nc1cccc(Cl)c1 100 µM [inhibitor, single point]
FC(F)Oc1ccc(-c2csc(=Nc3cccnc3)n2CC2CCCO2)cc1 (stereo unspecified) 14.1 µM [inhibitor, single point]
Cc1ccc(NC(=O)CSc2sc3c(O)cc(=O)[nH]c3c2C#N)cc1C 224 µM [inhibitor, partial curve, poor fit]
COc1cccc2c1cc1c(=O)n(CC(=O)NCCCc3ccccc3)nc(C)n12 10 µM [inhibitor, single point]
O=C(Nc1nc2ccccc2[nH]1)c1cccs1 100 µM [inhibitor, single point]
Cc1ccn2c(=O)nc(SCC(=O)Nc3ccc4c(c3)OCO4)nc2c1 100 µM [inhibitor, single point]
Cc1cc(Cl)ccc1OCC(=O)NNC(=O)CCOc1ccccc1 22.4 µM [inhibitor, single point]
Nc1ccc2nc(-c3ccc(Cl)cc3)[nH]c2c1 100 µM [inhibitor, single point]
O=C(Cn1c(C(F)(F)F)nc2ccccc21)Nc1ccccc1C(=O)O 17.8 µM [inhibitor, single point]
Cc1ccc(NC(=S)NC(=O)c2ccccc2)cc1NC(=S)NC(=O)c1ccccc1 112 µM [inhibitor, single point]
CC(C)(C)c1ccc(OCCNC(=S)Nc2ccccc2)cc1 100 µM [inhibitor, single point]
CC(C)OC(=O)C(C)Nc1n[nH]c(=S)[nH]c1=O (stereo unspecified) 56.2 µM [inhibitor, partial curve]
COc1cc2cc3c(N)c(C(=O)NCc4ccco4)sc3nc2cc1OC 200 µM [inhibitor, partial curve, poor fit]
O=C(Nc1cccc(F)c1)c1sc(Cl)nc1-c1ccccc1 70.8 µM [inhibitor, partial curve, poor fit]
O=C(COc1ccc2ccccc2c1)NNC(=O)Cc1ccccc1 44.7 µM [inhibitor, single point]
COc1ccc(CN(CC2CCCO2)S(=O)(=O)c2ccc(C(=O)O)cc2)cc1OC (stereo unspecified) 100 µM [inhibitor, single point]
N#C/C(=C\c1ccc(N2CCCC2)c([N+](=O)[O-])c1)c1nc2ccccc2[nH]1 10 µM [inhibitor, single point]
CCCCc1cc(=O)oc2cc(O)cc(O)c12 1000 µM [inhibitor, partial curve, poor fit]
Cn1c(Cc2ccccc2)n[nH]c1=S 22.4 µM [inhibitor, single point]
CCOc1ccc(CCNC(=O)COC(=O)Cc2ccc(OC)c(OC)c2)cc1OCC 100 µM [inhibitor, single point]
N#CC(C#N)=C1C=CC=CN1/C(=C\c1ccco1)C(=O)c1ccc(Cl)cc1 22.4 µM [inhibitor, single point]
COc1ccc(-c2nc(-c3ccccc3)c(-c3cccs3)[nH]2)cc1OC 112 µM [inhibitor, partial curve, poor fit]
O=S(=O)(c1ccc(Br)cc1)c1cnc2ccccc2n1 100 µM [inhibitor, partial curve, poor fit]
COCCNC(=O)c1ccc2snnc2c1 50.1 µM [inhibitor, single point]
NC(=S)N/N=C1/CCSc2ccc3ccccc3c21 100 µM [inhibitor, single point]
CS(=O)(=O)N(Cc1ccccc1)c1ccc(C(=O)Nc2ccc3c(c2)OCO3)cc1 100 µM [inhibitor, single point]
O=C(Nc1ccc(F)cc1)c1oc2ccccc2c1NC(=O)C1CC1 12.6 µM [inhibitor, partial curve, poor fit]

A draw from above in order of SMILES length, falling.
Potency, inconclusive:
CCOC(=O)N1CCN(c2nc(SC)nc3sc4c(c23)CC(C)(C)OC4)CC1 100 µM [inhibitor, single point]
COc1cc2cc3c(N)c(C(=O)NCc4ccco4)sc3nc2cc1OC 200 µM [inhibitor, partial curve, poor fit]
CC(C)OC(=O)C(C)Nc1n[nH]c(=S)[nH]c1=O (stereo unspecified) 56.2 µM [inhibitor, partial curve]

— PubChem BioAssay AID504842 (National Center for Advancing Translational Sciences (NCATS), 2011)
